Results reported in paper PMC8579991.
Results are given in words; binding and its absence hold for the method and conditions named. In cells and extracts the contact can be indirect. Here binding means that the protein was enriched with, or labelled near, the bait; the list need not be complete.

Protein sequences, listed by entry. Tags and fused reporters are not part of them. Lines headed by an entry give the natural chain unless they say otherwise; changes in a name come on top.
UniProt P02647: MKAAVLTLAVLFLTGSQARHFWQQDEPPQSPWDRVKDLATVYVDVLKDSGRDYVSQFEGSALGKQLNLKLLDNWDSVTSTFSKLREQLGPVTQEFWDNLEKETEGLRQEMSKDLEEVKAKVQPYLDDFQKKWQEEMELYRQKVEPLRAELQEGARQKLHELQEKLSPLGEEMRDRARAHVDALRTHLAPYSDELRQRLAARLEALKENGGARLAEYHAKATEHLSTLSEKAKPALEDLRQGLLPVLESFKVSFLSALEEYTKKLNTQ
UniProt O95445: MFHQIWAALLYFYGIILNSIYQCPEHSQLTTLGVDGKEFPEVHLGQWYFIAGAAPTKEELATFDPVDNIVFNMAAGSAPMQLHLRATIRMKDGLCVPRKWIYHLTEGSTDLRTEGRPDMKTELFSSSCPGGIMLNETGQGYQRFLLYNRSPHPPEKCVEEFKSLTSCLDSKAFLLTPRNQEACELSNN

Molecular target: apolipoprotein A1 (apoA1) (human (endogenous in plasma)) (UniProt P02647)
Test: affinity purification with mass spectrometry; anti-apoA1 immunoprecipitation from human plasma; apolipoproteins of the bound fraction by MS; isotype control

In the case of “apolipoprotein M (apoM) (from UniProt O95445 1-188)”, the binding is reported as “binds”.

B1: apolipoprotein A4 (apoA4) (protein, UniProt P06727 21-396)
chain: EVSADQVATVMWDYFSQLSNNAKEAVEHLQKSELTQQLNALFQDKLGEVNTYAGDLQKKLVPFATELHERLAKDSEKLKEEIGKELEELRARLLPHANEVSQKIGDNLRELQQRLEPYADQLRTQVSTQAEQLRRQLTPYAQRMERVLRENADSLQASLRPHADELKAKIDQNVEELKGRLTPYADEFKVKIDQTVEELRRSLAPYAQDTQEKLNHQLEGLTFQMKKNAEELKARISASAEELRQRLAPLAEDVRGNLRGNTEGLQKSLAELGGHLDQQVEEFRRRVEPYGENFNKALVQQMEQLRQKLGPHAGDVEGHLSFLEKDLRDKVNSFFSTFKEKESQDKTLSLPELEQQQEQQQEQQQEQVQMLAPLES
B1 was tested, and the binding was “binds”.
